Values from PubChem BioAssay AID686943 (Drosophila RNAi Screening Center, 2013)
In all, the deposit lists about 23,000 reagents; below is a random part of those that have a named target and a result. 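Extra replicates exist only for a retested subset of genes; insulin dose and duration not given; both raised and lowered dpERK matter.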 The numbers tell different reagents against one gene apart. A plus sign joins genes that one reagent is predicted to hit. Not stated in the record: the amount of reagent, the time to read-out.

Assay: 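Knockdowns that increase or decrease active ERK after insulin receptor stimulation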 (primary screen)
System: Drosophila S2R+ haemocyte-like cells expressing YFP-tagged ERK (Rolled)
Knock-down reagent: long dsRNA against Drosophila genes
Challenge: insulin stimulation versus unstimulated cells; dose and duration not given
Detection: 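Per-plate z-scores of phospho-ERK immunostaining normalised to YFP-tagged ERK, measured with and without insulin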
Direction: replicate 1, z-score of dpERK with insulin and replicate 2, z-score of dpERK with insulin: higher = more active ERK per ERK-YFP after insulin; replicate 1, z-score of dpERK under basal conditions: higher = more basal active ERK per ERK-YFP; replicate 1, z-score of ERK-YFP with insulin: higher = more YFP-tagged ERK signal

gene | dsRNA no. | replicate 1, z-score of dpERK with insulin | replicate 2, z-score of dpERK with insulin | replicate 1, z-score of dpERK under basal conditions | replicate 1, z-score of ERK-YFP with insulin
Flacc | 1 | -0.05 | 0.6 | -0.24 | 0.91
Rab3GAP1 | 1 | 0.46 | -0.09 | 2.71 | 0.13
Rab3GAP1 | 2 | 0.07 | -0.63 | 0.84 | 0.18
CG15919 | 1 | 1.28 | -0.11 | 0.01 | -0.63
Ilp1 | 1 | -0.39 | 0.16 | -0.45 | 0.43
Or47b | 1 | 0.82 | 0.75 | -0.46 | -0.67
CG15629 | 1 | 1.06 | 0.13 | -0.02 | 0.74
CG15139 (retired record) | 1 | 0.6 | 0.09 | -1.15 | 0.92
Proc-R | 1 | 0.23 | 0.48 | 1.16 | 0.26
Rab35 | 1 | -0.79 | 0.75 | -0.97 | -1
Trax | 1 | 1.07 | -0.25 | -0.64 | -1.04
CG13043 | 1 | -0.16 | -0.01 | -0.74 | 0.38
Arts + Apl | 1 | 0.19 | 0.19 | -0.12 | -0.09
Obp50a | 1 | 0.47 | 0.2 | -0.93 | -0.08
Psf3 | 1 | 1.28 | 0.75 | -1.14 | -0.14
Psf3 | 2 | 0.8 | 1.32 | 0.24 | -0.25
CG2767 | 1 | -0.38 | 0.08 | -0.11 | -0.52
CR10102 | 1 | -0.96 | -2.34 | -1.25 | 1.54
Vps15 | 1 | 0.32 | 0.17 | -0.31 | -0.26
Cda9 | 1 | -0.55 | 0.52 | -0.09 | 0.25
CG14017 | 1 | 0.89 | 0.68 | 0.44 | -0.22
bgcn | 1 | -1.24 | -0.86 | -0.08 | 1.03
bgcn | 2 | -0.19 | -0.04 | 0.23 | 1.01
elm | 1 | -0.49 | 0.1 | 0.1 | 0.87
Naus | 1 | -0.04 | 0.84 | -1.42 | -0.06
Naus | 2 | -1.61 | -0.02 | 0.03 | 0.7
CG31226 | 1 | 0.51 | 0.61 | -1.56 | 1.62
bic | 1 | 1.32 | 0.89 | -0.71 | -0.33
CG17266 | 1 | 2.23 | -0.46 | 0.15 | -1.49
CG17266 | 2 | 0.62 | -0.54 | -1.11 | -0.28
5PtaseI | 1 | 0.43 | -0.43 | -0.61 | 1.1
5PtaseI | 2 | 0.56 | 0.77 | 0.83 | -0.35
Sema1b | 1 | 0.66 | -1.1 | -0.42 | 0.98
Vm26Ac | 1 | 0.28 | -0.01 | -0.07 | 0.1
CG13063 | 1 | 0.16 | -0.23 | -1.19 | 0.2
parvin | 1 | 0.7 | 1.51 | -0.42 | 0.3
Cog2 | 1 | 1.09 | -1.26 | 0.98 | 0.77
lncRNA:yar | 1 | 0.11 | -0.04 | -0.83 | 0.01
lncRNA:yar | 2 | -0.72 | -0.1 | 0.43 | 0.07
l(1)G0320 | 1 | 0.11 | 0.18 | -0.01 | 0.44
CG41520 | 1 | -0.47 | 0.61 | 0.82 | 0.01
CG41520 | 2 | -0.23 | 0.03 | -0.45 | 0.15
CG12341 | 1 | 1.07 | 0.72 | -0.46 | -0.07
chm | 1 | -0.23 | -0.47 | -0.63 | -0.01
Oct-TyrR | 1 | 0.56 | 0.55 | 1.96 | 0.68
CkIIbeta2 | 1 | 0.43 | 0.1 | -0.68 | -0.26
Tango6 | 1 | 2.23 | 2.1 | -2.73 | -0.33
mthl6 | 1 | -0.06 | -0.44 | – | 0.21
ND-24L | 1 | 0.68 | -0.26 | -0.69 | 0.27
pigs | 1 | -0.09 | 0.08 | -0.51 | 0.29
pigs | 2 | 0.3 | 0.13 | 0.8 | -0.17
pigs | 3 | -0.22 | 0.05 | -0.2 | -0.06
CG16762 | 1 | 0.43 | 0.02 | 0.32 | 0.28
zip | 1 | 0.39 | -0.22 | 0.86 | -1.55
zip | 2 | -1.63 | 0.05 | 0.57 | -0.91
CG4928 | 1 | 0.18 | -0.22 | 0.04 | -0.15
CG15237 | 1 | -0.55 | 0.62 | -0.48 | -0.82
CG18088 | 1 | 0.37 | 0.23 | -1.23 | 0.04
CG42855 | 1 | -0.23 | 0.7 | -0.1 | -0.04
CG9582 | 1 | 0.02 | 1.04 | -0.56 | -0.46
CG31347 | 1 | 0.31 | 0.59 | -0.94 | 0.51
Dyb | 1 | 0.16 | -0.68 | -0.14 | 0.17
Dyb | 2 | -0.63 | 0.22 | -0.81 | -0.88
CG6209 | 1 | 0.46 | -0.18 | -0.52 | 0.1
CG14483 | 1 | -0.27 | 0.4 | -0.17 | 0.48
CG1971 | 1 | 0.93 | 0.19 | 0.1 | 0.25
CG8516 | 1 | 0.03 | 0.12 | 1.06 | -0.17
chb | 1 | 0.82 | 2.03 | 1.95 | -0.35
CG10055 | 1 | -0.01 | -1.44 | -0.27 | 0.92
Dyro | 1 | -0.22 | 0.44 | -0.46 | 1.05
CG16710 | 1 | 0.98 | 0 | -0.28 | 0.09
lms | 1 | 0.28 | 0.05 | -0.3 | 0.29
Fcp3C | 1 | 0.64 | 0.33 | 0.62 | -0.12

11 of these entries in another layout.
| gene | dsRNA no. | replicate 1, z-score of dpERK with insulin | replicate 2, z-score of dpERK with insulin | replicate 1, z-score of dpERK under basal conditions | replicate 1, z-score of ERK-YFP with insulin |
| --- | --- | --- | --- | --- | --- |
| CG42855 | 1 | -0.23 | 0.7 | -0.1 | -0.04 |
| CG9582 | 1 | 0.02 | 1.04 | -0.56 | -0.46 |
| CG31347 | 1 | 0.31 | 0.59 | -0.94 | 0.51 |
| Dyb | 1 | 0.16 | -0.68 | -0.14 | 0.17 |
| Dyb | 2 | -0.63 | 0.22 | -0.81 | -0.88 |
| CG6209 | 1 | 0.46 | -0.18 | -0.52 | 0.1 |
| CG14483 | 1 | -0.27 | 0.4 | -0.17 | 0.48 |
| CG1971 | 1 | 0.93 | 0.19 | 0.1 | 0.25 |
| CG8516 | 1 | 0.03 | 0.12 | 1.06 | -0.17 |
| chb | 1 | 0.82 | 2.03 | 1.95 | -0.35 |
| CG10055 | 1 | -0.01 | -1.44 | -0.27 | 0.92 |
